These are yes or no findings as the source states them, for the method shown. In cells and extracts the contact can be indirect. Some results given as binding are weak or reduced against the parent protein; the word gives no strength. For some of these results: Tags and fused reporters may be left off the sequences shown. One block for each molecule: values may come before it.
How the values were obtained:
[1] = biological target: CFP-tagged PCNA (CFP-PCNA) (UniProt P12004); test: FRET or BRET; unpublished data: FRET of XPA wt or XPA F164A with PCNA in HeLa cells (endogenous XPA present)
[2] = biological target: CFP-tagged PCNA (CFP-PCNA) (UniProt P12004); test: FRET or BRET; sensitized emission, normalized FRET (N_FRET) between CFP- and YFP-tagged proteins in live, transiently transfected HeLa cells, 37°C
[3] = biological target: CFP-tagged PCNA (CFP-PCNA) (UniProt P12004); test: FRET or BRET; sensitized emission, normalized FRET (N_FRET) between CFP- and YFP-tagged proteins in live, transiently transfected XPA-/- cells, 37°C
[4] = biological target: proliferating cell nuclear antigen (PCNA), endogenous (human (endogenous in HeLa)) (UniProt P12004); test: co-IP; α-PCNA (PC10) beads on soluble and chromatin-enriched fractions of untransfected HeLa cells; extracts treated with a DNAse/RNAse cocktail; 4°C overnight; α-YFP beads as control; also after UVR (unpublished data)
[5] = biological target: YFP-tagged proliferating cell nuclear antigen (YFP-PCNA) (UniProt P12004); test: co-IP; α-YFP beads on soluble and chromatin-enriched fractions of HeLa cells stably expressing YFP-PCNA; extracts treated with a DNAse/RNAse cocktail; 4°C overnight; blot for endogenous XPA; also after UVR (unpublished data)
[6] = biological target: CFP-tagged PCNA (CFP-PCNA) (UniProt P12004); test: FRET or BRET; sensitized emission, normalized FRET (N_FRET) between CFP- and YFP-tagged proteins in live, transiently transfected HeLa cells, 37°C; remark: listed apart in the source

Chains of the proteins cited; added tags and fusions are not shown. Lines headed by an entry give the natural chain unless they say otherwise; changes in a name come on top.
UniProt P12004: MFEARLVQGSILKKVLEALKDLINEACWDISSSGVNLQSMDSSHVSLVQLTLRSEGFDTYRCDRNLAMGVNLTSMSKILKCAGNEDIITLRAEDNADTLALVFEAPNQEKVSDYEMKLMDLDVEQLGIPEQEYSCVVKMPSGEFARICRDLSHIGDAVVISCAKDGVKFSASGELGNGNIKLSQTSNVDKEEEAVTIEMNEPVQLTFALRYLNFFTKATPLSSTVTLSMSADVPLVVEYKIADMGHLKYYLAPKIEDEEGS
UniProt P23025: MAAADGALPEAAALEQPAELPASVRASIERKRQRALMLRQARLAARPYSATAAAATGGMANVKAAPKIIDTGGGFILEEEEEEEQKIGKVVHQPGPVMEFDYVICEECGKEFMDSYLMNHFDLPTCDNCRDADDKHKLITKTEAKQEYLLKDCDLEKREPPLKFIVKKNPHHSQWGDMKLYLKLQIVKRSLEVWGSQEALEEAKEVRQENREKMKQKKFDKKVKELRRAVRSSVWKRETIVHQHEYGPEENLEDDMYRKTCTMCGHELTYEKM

binding [1]: binds
Molecule: YFP-tagged XPA (YFP-XPA) (from UniProt P23025 1-273)
binding [2]: binds | binding [3]: binds

binding [1]: binds
Molecule: YFP-XPA F164A (from UniProt P23025 1-273)

binding [4]: binds | binding [5]: binds
Molecule: xeroderma pigmentosum group A (XPA) protein, endogenous (from UniProt P23025 1-273)

Molecule: MPLKFIVK (domain or fragment, UniProt P23025 161-167) [Met-XPA_(161−167)-YFP]
binding [6]: binds

— article PMC3496702
